The results in this text go back to the supplement of paper PMC12819154, “High-throughput peptide-centric local stability assay extends protein–ligand identification to membrane proteins, tissues and bacteria” (Nature Structural & Molecular Biology, 2025).

Protein sequences, listed by entry. Tags and fused reporters are not part of them. Lines headed by an entry give the natural chain unless they say otherwise; changes in a name come on top.
UniProt Q9JL35: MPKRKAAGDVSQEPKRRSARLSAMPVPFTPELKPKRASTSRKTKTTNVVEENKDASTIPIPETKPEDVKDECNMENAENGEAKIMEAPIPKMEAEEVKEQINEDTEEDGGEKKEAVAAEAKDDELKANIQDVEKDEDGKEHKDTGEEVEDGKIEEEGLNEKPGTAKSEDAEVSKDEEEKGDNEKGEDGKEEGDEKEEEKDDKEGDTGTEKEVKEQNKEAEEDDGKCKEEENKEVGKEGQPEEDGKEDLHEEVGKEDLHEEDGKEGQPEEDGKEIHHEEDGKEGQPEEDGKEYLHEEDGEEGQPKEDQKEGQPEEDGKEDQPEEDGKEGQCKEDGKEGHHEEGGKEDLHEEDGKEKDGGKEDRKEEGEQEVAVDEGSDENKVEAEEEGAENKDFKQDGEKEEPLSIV
UniProt Q9JIA7: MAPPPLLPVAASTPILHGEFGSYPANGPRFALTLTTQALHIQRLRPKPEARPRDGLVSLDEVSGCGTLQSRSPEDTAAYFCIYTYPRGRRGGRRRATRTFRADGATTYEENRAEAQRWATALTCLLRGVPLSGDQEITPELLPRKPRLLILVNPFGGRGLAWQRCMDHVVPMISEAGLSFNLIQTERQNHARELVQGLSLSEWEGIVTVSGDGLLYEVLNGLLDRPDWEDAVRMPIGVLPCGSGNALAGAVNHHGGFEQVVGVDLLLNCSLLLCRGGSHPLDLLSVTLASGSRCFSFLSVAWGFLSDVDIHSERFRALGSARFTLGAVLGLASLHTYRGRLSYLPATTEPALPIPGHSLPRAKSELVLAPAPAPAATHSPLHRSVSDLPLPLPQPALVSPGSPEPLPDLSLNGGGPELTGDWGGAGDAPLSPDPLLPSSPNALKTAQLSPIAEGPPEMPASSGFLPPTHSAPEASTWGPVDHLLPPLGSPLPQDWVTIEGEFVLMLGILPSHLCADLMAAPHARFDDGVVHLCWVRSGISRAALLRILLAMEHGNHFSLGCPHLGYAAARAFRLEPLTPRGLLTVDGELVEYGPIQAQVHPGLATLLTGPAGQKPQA
UniProt Q9DCP2, whole entry: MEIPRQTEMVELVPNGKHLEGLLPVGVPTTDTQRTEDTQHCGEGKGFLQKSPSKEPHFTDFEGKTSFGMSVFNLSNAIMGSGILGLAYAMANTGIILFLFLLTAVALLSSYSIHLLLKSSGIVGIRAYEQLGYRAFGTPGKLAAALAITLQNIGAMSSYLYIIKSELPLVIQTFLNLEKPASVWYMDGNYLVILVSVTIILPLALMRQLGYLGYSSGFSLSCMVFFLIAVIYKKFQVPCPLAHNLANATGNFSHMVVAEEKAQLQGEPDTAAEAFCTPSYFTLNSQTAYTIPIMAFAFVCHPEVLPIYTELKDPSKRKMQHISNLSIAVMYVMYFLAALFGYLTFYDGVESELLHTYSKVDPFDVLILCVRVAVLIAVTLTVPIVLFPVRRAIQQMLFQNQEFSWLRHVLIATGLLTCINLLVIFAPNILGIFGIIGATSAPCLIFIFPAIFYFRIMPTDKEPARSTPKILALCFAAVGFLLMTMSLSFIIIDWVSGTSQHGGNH
UniProt Q9JMA7: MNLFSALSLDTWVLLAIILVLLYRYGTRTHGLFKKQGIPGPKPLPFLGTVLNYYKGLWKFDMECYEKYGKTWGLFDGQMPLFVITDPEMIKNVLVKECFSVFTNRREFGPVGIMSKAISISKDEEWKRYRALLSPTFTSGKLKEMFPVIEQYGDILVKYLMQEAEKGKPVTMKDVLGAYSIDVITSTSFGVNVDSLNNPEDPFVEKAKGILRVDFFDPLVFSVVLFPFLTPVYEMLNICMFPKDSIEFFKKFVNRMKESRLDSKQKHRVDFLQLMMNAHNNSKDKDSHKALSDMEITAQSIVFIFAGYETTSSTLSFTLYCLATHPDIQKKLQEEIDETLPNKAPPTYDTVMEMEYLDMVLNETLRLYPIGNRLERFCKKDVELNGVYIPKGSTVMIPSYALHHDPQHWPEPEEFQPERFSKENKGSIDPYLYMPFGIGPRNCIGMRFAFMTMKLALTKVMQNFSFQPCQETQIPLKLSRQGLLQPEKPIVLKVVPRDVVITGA
UniProt Q9ES97: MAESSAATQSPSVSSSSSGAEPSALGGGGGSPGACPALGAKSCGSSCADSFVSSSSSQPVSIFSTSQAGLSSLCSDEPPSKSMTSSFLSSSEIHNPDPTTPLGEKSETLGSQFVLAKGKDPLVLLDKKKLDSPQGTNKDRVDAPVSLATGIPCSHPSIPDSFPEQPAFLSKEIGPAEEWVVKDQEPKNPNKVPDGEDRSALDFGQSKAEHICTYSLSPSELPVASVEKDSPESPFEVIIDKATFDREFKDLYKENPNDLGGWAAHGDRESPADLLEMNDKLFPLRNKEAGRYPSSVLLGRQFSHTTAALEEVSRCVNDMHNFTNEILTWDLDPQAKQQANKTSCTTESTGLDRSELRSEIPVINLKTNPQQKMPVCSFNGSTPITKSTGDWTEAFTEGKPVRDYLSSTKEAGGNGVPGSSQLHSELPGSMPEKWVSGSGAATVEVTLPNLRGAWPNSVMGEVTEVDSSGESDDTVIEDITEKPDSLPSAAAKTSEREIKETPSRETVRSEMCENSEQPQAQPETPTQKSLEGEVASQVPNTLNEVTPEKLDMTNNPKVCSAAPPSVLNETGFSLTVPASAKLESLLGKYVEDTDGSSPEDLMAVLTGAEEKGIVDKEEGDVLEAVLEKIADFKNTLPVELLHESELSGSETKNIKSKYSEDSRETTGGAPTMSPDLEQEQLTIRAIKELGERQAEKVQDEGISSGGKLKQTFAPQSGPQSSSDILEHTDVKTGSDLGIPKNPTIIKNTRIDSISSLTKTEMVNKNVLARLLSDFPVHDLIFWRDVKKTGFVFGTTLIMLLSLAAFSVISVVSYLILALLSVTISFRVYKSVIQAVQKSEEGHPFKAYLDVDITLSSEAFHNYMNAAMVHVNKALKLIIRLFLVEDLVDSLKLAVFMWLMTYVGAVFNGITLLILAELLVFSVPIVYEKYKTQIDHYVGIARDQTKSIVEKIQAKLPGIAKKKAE
UniProt Q9QYG0: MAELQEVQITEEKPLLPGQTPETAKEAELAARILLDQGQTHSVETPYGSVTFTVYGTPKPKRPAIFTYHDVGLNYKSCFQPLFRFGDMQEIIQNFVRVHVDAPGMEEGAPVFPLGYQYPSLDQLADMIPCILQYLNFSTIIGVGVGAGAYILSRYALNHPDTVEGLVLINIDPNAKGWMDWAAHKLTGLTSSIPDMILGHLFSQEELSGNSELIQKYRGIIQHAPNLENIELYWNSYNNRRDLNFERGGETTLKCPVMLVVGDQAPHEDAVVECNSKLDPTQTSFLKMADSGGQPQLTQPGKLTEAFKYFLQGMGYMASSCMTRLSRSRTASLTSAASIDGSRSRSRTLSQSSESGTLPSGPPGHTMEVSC
UniProt Q9JIG8: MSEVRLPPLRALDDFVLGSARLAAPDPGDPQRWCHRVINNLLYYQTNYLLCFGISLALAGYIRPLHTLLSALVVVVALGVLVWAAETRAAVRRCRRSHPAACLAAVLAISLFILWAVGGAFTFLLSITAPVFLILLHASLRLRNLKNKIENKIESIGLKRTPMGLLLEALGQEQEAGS
UniProt Q9JKW0, whole entry: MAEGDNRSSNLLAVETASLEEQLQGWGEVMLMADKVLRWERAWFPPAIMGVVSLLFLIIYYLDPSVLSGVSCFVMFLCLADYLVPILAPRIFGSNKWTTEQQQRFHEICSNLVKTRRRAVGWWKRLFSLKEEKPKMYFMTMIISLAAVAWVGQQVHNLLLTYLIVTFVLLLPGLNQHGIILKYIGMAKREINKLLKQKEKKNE
UniProt Q9EST1: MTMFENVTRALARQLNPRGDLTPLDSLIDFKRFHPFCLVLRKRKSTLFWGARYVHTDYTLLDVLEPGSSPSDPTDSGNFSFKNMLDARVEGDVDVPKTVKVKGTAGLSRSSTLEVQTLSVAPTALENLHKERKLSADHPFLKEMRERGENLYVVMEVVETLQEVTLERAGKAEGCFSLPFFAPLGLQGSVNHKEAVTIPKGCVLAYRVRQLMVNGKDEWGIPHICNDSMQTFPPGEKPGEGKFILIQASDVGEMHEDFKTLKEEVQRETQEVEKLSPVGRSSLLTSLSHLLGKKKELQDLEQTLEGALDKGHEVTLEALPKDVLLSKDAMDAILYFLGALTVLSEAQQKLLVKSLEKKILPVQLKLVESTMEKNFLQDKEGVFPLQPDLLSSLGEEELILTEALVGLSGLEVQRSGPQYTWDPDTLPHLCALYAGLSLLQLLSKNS
UniProt Q9ET30: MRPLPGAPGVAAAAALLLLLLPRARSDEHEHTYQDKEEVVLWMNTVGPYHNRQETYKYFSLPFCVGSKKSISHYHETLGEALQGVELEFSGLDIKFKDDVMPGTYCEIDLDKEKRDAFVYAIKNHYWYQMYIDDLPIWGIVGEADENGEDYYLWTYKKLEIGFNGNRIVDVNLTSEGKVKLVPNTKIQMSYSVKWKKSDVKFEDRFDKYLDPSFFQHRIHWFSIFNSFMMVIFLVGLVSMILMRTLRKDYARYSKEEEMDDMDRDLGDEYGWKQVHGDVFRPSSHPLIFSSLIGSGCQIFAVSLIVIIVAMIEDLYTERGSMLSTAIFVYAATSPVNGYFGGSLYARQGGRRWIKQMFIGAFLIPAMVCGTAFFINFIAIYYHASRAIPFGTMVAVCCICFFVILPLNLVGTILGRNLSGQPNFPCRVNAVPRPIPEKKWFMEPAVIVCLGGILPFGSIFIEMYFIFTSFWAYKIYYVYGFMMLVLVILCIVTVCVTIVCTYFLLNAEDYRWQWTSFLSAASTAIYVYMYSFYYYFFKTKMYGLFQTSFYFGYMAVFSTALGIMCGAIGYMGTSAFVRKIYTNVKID
UniProt Q9EQN3: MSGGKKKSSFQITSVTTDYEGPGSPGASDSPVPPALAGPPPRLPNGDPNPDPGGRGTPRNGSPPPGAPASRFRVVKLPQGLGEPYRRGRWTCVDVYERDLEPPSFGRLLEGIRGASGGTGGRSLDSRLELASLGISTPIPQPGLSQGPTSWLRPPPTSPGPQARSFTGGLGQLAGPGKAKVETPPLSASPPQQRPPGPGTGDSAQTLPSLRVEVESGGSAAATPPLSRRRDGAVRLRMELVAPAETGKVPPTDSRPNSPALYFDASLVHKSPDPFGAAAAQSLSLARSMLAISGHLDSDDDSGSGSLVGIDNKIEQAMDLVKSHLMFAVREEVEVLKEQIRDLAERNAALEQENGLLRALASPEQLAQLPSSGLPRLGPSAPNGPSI
UniProt Q9ET26: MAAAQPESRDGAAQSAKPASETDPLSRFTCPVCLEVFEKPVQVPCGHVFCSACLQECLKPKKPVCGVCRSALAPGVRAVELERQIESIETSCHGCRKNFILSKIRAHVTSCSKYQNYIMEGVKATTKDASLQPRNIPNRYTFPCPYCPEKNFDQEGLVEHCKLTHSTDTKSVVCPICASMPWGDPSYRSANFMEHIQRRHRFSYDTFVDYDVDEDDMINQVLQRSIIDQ
UniProt Q9JKX3: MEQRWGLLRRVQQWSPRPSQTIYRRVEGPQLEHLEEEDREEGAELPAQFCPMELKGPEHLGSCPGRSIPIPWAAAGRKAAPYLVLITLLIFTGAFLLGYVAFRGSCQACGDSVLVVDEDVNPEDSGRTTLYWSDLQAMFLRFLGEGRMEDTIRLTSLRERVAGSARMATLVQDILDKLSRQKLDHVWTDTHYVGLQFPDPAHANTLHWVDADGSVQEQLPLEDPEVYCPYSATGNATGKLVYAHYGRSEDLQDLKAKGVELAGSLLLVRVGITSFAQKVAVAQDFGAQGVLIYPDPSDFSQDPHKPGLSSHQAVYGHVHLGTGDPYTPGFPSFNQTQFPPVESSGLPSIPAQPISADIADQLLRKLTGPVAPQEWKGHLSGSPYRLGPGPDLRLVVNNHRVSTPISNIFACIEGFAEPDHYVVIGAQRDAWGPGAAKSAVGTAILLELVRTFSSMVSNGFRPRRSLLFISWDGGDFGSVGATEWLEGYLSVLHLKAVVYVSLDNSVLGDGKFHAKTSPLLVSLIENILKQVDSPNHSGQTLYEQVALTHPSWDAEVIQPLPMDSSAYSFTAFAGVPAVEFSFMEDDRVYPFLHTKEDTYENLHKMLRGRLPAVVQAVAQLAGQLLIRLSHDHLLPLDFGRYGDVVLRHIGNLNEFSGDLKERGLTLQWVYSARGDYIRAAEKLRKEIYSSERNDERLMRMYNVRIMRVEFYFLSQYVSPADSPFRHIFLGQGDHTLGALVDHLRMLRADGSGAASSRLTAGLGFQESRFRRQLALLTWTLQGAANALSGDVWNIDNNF
UniProt Q9JMD3: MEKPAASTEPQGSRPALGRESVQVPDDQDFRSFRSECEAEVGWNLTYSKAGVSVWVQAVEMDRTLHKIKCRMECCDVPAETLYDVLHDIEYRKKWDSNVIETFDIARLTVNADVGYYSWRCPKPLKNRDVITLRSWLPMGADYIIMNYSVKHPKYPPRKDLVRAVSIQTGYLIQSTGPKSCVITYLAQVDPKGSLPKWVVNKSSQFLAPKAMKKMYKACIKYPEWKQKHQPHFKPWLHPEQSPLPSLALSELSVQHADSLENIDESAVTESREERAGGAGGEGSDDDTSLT

The other results are listed elsewhere or left out. Most entries show no effect beyond the scatter of the controls.

Compound in the experiment: CN[C@@H]1C[C@H]2O[C@@](C)([C@@H]1OC)n1c3ccccc3c3c4c(c5c6ccccc6n2c5c31)C(=O)NC4 [staurosporine]
Briefly: log2 fold change of pooled soluble protein (PISA), ligand vs vehicle (log2 ratio); higher = more thermally stabilized. To be noted: ligand concentration: 20 uM; assay format: PISA pool 52.9/55.5/58.6 C.
UniProt Q9JL35: the “log2 fold change of pooled soluble protein” value (from here on “log2 fold change”) came out at 0.106.

Take UniProt Q9JIA7: the “log2 fold change” value turned out to be 0.167. As to UniProt Q9JKJ9, the “log2 fold change” value is -0.0721. As for UniProt Q9EPE9, the “log2 fold change” value is -0.29. The result for UniProt Q9ERR7 reads 0.0551; that for UniProt Q9DCP2, 0.0373; that for UniProt Q9ET22, -0.0213.

As for UniProt Q9JHU4, the “log2 fold change” value is -0.103. Consider UniProt Q9JHQ5, for which the “log2 fold change” value was 0.204. The result for UniProt Q9JMA7 reads 0.343; that for UniProt Q9JJH1, -0.00886. For UniProt Q9JJJ3 the value was -0.0949; for UniProt Q9ES97, -0.0771. For UniProt Q9QYG0 the value was -0.00616; for UniProt Q9JIG8, 0.0451; for UniProt Q9DC51, -0.00751. Consider UniProt Q9JKW0, for which the “log2 fold change” value was -0.159. With UniProt Q9DCJ5, the “log2 fold change” value was -0.157. In the case of UniProt Q9EST1, the “log2 fold change” value is -0.346. For UniProt Q9JMA1, the “log2 fold change” value was -0.0836. The result for UniProt Q9ERU9 reads -0.0443; that for UniProt Q9ET30, -0.333; that for UniProt Q9JHU9, -0.128. As for UniProt Q9ERL7, the “log2 fold change” value is -0.0666. For UniProt Q9QX60 the value was 0.0313. The result for UniProt Q9EQN3 reads 0.0871. The result for UniProt Q9ET26 reads 0.0939; that for UniProt Q9JJZ4, 0.0384; that for UniProt Q9JKX3, 0.019.

Turning to UniProt Q9JMD3, the “log2 fold change” value was 0.207. For UniProt Q9QXD1 the value was 0.000395; for UniProt Q9DD06, -0.0017.

With UniProt Q9ESD7, the “log2 fold change” value came out at 0.0117. With UniProt Q9ET01, the “log2 fold change” value came out at 0.0804.

Turning to UniProt Q9DCX8, the “log2 fold change” value was 0.043. For UniProt Q9JM76 the value was -0.0219.
